Our source for the binding values is publication PMC3629710.

Chains of the proteins cited; added tags and fusions are not shown. Lines headed by an entry give the natural chain unless they say otherwise; changes in a name come on top. Residues count along the entry.
UniProt P00519: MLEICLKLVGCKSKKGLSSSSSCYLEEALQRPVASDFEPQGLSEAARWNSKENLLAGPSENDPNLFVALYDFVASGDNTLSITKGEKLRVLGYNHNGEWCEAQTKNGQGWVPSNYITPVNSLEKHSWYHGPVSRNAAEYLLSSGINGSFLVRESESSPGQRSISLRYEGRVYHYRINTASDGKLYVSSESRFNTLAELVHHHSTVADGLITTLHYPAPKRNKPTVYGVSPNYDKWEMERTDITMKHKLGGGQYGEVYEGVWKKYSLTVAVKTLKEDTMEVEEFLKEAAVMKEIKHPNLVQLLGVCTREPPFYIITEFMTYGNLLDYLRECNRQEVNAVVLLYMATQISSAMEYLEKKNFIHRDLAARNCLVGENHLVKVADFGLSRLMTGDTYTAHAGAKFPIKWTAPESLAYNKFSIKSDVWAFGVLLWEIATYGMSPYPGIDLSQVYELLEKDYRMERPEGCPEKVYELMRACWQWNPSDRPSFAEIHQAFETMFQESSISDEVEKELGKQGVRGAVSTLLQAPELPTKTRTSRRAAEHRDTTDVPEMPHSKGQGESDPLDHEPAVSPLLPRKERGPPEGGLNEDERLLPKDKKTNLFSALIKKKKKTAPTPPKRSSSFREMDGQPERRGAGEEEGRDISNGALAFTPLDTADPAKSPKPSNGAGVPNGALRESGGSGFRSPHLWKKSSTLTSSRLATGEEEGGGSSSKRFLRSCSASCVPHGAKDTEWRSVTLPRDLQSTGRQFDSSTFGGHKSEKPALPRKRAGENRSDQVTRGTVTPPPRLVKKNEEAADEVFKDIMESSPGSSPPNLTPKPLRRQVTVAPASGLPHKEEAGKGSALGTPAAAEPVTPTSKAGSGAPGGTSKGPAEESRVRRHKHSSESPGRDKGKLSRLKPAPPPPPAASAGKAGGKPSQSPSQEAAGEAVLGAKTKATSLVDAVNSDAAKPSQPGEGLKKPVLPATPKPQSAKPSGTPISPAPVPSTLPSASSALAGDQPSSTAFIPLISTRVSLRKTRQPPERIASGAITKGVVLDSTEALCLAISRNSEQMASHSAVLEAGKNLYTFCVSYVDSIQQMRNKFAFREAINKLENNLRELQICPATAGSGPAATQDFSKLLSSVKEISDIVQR
GST-Abl-SH3: residues 61-121 of P00519
UniProt Q16539: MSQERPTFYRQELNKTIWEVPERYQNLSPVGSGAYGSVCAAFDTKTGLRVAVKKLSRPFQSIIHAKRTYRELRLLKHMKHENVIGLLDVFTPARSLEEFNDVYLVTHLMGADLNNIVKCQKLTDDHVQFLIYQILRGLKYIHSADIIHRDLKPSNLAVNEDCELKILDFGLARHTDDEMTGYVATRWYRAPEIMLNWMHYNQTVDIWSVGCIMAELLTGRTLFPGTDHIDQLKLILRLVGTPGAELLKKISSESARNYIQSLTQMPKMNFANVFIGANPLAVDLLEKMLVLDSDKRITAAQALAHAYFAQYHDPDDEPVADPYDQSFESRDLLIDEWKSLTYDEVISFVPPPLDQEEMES
UniProt P46109: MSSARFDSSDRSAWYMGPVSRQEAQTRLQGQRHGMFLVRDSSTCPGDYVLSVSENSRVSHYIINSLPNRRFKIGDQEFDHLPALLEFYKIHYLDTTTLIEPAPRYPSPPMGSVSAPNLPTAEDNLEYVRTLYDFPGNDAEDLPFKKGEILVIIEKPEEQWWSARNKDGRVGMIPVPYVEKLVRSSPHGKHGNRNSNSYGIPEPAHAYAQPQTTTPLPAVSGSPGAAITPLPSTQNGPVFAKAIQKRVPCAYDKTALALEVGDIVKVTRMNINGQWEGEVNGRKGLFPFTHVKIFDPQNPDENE
UniProt Q8IZP0: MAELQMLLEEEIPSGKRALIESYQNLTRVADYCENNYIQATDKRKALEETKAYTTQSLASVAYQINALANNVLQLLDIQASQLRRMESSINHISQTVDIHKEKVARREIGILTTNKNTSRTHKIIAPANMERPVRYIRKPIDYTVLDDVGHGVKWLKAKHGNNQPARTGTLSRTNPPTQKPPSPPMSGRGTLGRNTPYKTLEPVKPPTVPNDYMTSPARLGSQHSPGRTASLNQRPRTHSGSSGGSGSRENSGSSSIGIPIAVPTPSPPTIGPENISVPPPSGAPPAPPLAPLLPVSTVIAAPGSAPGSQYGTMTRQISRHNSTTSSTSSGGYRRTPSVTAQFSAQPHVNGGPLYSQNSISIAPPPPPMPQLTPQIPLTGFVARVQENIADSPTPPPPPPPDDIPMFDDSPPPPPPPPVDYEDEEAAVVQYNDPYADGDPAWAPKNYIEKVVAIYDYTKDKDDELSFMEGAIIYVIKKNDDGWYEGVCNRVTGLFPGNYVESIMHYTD
UniProt Q05397: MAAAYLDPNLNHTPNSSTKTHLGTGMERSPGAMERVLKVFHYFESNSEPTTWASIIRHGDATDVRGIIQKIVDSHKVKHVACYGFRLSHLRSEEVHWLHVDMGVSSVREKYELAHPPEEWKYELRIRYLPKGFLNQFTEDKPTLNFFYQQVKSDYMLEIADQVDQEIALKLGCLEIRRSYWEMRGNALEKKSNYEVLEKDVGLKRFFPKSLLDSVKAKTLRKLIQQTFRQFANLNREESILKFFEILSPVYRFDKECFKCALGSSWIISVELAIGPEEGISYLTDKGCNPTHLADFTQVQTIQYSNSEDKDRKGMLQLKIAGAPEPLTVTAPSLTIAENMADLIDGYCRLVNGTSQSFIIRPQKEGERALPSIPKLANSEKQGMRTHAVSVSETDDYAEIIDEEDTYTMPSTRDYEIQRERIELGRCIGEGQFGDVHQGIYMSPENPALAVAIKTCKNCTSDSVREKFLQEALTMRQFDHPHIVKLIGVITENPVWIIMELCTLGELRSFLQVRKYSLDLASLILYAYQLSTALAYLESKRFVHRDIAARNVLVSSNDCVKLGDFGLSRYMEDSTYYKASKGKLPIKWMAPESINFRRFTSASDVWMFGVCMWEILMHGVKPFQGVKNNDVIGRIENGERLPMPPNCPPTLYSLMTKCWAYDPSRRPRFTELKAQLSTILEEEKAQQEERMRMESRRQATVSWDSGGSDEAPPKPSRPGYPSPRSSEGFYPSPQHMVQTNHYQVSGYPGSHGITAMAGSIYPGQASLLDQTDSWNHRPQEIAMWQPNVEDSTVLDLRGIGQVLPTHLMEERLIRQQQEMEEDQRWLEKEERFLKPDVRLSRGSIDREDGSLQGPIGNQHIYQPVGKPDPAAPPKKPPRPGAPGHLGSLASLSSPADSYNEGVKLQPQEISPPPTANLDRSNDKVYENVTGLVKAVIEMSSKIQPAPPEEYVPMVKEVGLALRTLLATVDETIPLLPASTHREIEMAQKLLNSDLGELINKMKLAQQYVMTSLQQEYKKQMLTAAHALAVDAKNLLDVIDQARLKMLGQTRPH
UniProt P49023: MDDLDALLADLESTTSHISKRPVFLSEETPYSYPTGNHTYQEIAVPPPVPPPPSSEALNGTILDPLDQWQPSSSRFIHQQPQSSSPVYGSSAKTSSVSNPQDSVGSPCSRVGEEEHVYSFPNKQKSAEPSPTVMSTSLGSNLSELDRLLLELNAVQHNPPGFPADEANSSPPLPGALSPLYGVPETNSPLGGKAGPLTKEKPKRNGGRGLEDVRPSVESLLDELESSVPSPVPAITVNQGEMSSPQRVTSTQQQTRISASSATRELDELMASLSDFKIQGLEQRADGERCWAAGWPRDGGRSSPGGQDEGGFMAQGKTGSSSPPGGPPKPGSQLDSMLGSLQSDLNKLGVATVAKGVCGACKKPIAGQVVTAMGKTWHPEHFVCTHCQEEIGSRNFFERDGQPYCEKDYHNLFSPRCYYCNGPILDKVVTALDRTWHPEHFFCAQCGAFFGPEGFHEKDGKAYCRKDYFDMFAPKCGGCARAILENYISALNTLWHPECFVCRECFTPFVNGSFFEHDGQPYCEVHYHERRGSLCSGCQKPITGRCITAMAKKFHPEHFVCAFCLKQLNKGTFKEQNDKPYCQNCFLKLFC

One test concerns the target GST-Abl-SH3 (UniProt P00519). The test can be described thus: pull-down; 12 ug GST-fusion protein on glutathione-sepharose 4 fast flow beads with 1 mg K562 protein extract in lysis buffer, 2 h at 4 °C, 3 washes, immunoblot; also lysates of shAbi1-2, shCbl-1, shp130Cas-5 and shControl K562 clones; only the target purified.
Test [1] concerns the target p38α MAPK (human (endogenous in K562)) (UniProt Q16539). As to the kind of experiment: co-IP; endogenous proteins immunoprecipitated from precleared K562 whole cell lysates (GammaBind G Sepharose), immunoblot; in Figures 5A and 6E cells cultured on 10 ug/ml fibronectin for 24 h; in Figure 6E shC3G or shCT clones. On the technique in general: A western blot detects proteins with antibodies after separation by electrophoresis.

In test [2] the target is CrkL (human (endogenous in K562)) (UniProt P46109). The test is described as above.
The target of test [3] is Abi1 (human (endogenous in K562)) (UniProt Q8IZP0). The description is as above.

These are yes or no findings as the source states them, for the method shown. Binding seen in cells or lysates may run through a third protein. Some entries that bind do so weakly or less than the wild type.

With Abi1 (from UniProt Q8IZP0 1-508), in the test with GST-Abl-SH3, the binding entry is “binds”. For the substance CrkL (from UniProt P46109 1-303), the binding result in test [1] is recorded as “binds”.

With FAK (from UniProt Q05397 1-1052), the binding result in test [2] and in test [1] was “binds” each time.

For the substance c-Abl (from UniProt P00519 1-1130), the binding entry in test [3] is “binds”. paxillin (from UniProt P49023 1-591): the binding result in test [2] and in test [1] was “binds” each time.
